From PMC13156308
These are yes or no findings as the source states them, for the method shown. In cells and extracts the contact can be indirect. Some results given as binding are weak or reduced against the parent protein; the word gives no strength.

By UniProt entry, the sequences of proteins in these tests, tags left out.
UniProt P49736: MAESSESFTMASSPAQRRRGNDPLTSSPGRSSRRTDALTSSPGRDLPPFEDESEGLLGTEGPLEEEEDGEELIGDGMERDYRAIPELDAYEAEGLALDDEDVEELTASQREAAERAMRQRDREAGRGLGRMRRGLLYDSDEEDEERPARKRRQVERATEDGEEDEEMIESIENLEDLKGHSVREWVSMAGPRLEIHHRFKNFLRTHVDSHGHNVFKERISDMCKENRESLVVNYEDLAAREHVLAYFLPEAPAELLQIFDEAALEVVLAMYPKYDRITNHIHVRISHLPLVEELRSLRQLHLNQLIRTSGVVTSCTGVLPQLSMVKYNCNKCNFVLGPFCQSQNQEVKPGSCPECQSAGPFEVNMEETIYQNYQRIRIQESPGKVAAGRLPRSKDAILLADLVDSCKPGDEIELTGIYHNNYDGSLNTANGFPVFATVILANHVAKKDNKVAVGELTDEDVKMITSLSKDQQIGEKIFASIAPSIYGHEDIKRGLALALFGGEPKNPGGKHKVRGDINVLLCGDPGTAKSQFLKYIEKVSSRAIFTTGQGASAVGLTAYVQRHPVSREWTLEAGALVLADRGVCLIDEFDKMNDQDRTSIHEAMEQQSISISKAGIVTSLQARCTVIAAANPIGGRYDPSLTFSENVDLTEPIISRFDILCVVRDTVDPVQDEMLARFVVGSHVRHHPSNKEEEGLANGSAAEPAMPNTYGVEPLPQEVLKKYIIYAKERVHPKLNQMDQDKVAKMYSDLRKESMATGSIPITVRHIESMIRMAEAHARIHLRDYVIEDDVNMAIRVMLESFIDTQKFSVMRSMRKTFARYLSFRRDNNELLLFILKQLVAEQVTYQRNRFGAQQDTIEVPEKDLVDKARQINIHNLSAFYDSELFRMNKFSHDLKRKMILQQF

Target: MCM2 (endogenous, 293T) (human (endogenous in 293T)) (UniProt P49736)
Experiment: co-IP; anti-MCM2 antibody and protein A/G beads, lysate of wild-type or MCM2-2A mutant 293T cells, 200 mM NaCl, 0.5% NP-40; IgG as negative control

binding: binds
B1: POLD3 (endogenous, 293T) (protein, UniProt Q15054 1-466)
chain: MADQLYLENIDEFVTDQNKIVTYKWLSYTLGVHVNQAKQMLYDYVERKRKENSGAQLHVTYLVSGSLIQNGHSCHKVAVVREDKLEAVKSKLAVTASIHVYSIQKAMLKDSGPLFNTDYDILKSNLQNCSKFSAIQCAAAVPRAPAESSSSSKKFEQSHLHMSSETQANNELTTNGHGPPASKQVSQQPKGIMGMFASKAAAKTQETNKETKTEAKEVTNASAAGNKAPGKGNMMSNFFGKAAMNKFKVNLDSEQAVKEEKIVEQPTVSVTEPKLATPAGLKKSSKKAEPVKVLQKEKKRGKRVALSDDETKETENMRKKRRRIKLPESDSSEDEVFPDSPGAYEAESPSPPPPPSPPLEPVPKTEPEPPSVKSSSGENKRKRKRVLKSKTYLDGEGCIVTEKVYESESCTDSEEELNMKTSSVHRPPAMTVKKEPREERKGPKKGTAALGKANRQVSITGFFQRK
